# In the supplement of paper PMC8728848:
# The other results are listed elsewhere or left out.
# B1: Gal 12 (Homo sapiens), Q96DT0 (protein)
# chain: MSQPSGGRAPGTRIYSWSCPTVMSPGEKLDPIPDSFILQPPVFHPVVPYVTTIFGGLHAGKMVMLQGVVPLDAHRFQVDFQCGCSLCPRPDIAFHFNPRFHTTKPHVICNTLHGGRWQREARWPHLALRRGSSFLILFLFGNEEVKVSVNGQHFLHFRYRLPLSHVDTLGIFGDILVEAVGFLNINPFVEGSREYPAGHPFLLMSPRLEVPCSHALPQGLSPGQVIIVRGLVLQEPKHFTVSLRDQAAHAPVTLRASFADRTLAWISRWGQKKLISAPFLFYPQRFFEVLLLFQEGGLKLALNGQGLGATSMNQQALEQLRELRISGSVQLYCVHS
# Legend:
# Assay in all cases: glycan array binding signal (z-score within array); higher = stronger binding
# Details in all cases: glycan notation: IUPAC condensed, linker removed
# [1] = biological target: Man(a1-2)Man(a1-3)[Man(a1-2)Man(a1-6)]Man
# Outline: (§1)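 The Consortium for Functional Glycomics database supplied 3228 glycan arrays, of which those lacking an available protein sequence were dropped. The binding signal, a within-array Z-score, was averaged across arrays of the same protein sequence and across linkers. Negative scores can be read as non-binding.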
# [2] = biological target: Man(a1-2)Man(a1-3)[Man(a1-2)Man(a1-6)]Man(a1-6)[Man(a1-2)Man(a1-2)Man(a1-3)]Man
# Outline: as §1
# [3] = biological target: Man(a1-2)Man(a1-3)[Man(a1-2)Man(a1-6)]Man(a1-6)[Man(a1-2)Man(a1-2)Man(a1-3)]Man(b1-4)GlcNAc(b1-4)GlcNAc
# Outline: as §1
# [4] = biological target: Man(a1-2)Man(a1-3)[Man(a1-6)]Man(a1-6)[Man(a1-2)Man(a1-3)]Man(b1-4)GlcNAc(b1-4)GlcNAc
# Outline: as §1
# [5] = biological target: Man(a1-2)Man(a1-6)[Man(a1-3)]Man(a1-6)[Man(a1-2)Man(a1-2)Man(a1-3)]Man
# Outline: as §1
# [6] = biological target: Man(a1-2)Man(a1-6)[Man(a1-3)]Man(a1-6)[Man(a1-2)Man(a1-2)Man(a1-3)]Man(b1-4)GlcNAc(b1-4)GlcNAc
# Outline: as §1
# Man(a1-3)[Man(a1-6)]Man = biological target: Man(a1-3)[Man(a1-6)]Man
# Outline: as §1
# [7] = biological target: Man(a1-3)[Man(a1-6)]Man(a1-6)[Man(a1-2)Man(a1-3)]Man(b1-4)GlcNAc(b1-4)GlcNAc
# Outline: as §1
# [8] = biological target: Man(a1-3)[Man(a1-6)]Man(a1-6)[Man(a1-3)]Man
# Outline: as §1
# [9] = biological target: Man(a1-3)[Man(a1-6)]Man(a1-6)[Man(a1-3)]Man(b1-4)GlcNAc(b1-4)GlcNAc
# Outline: as §1
# [10] = biological target: Man(a1-3)[Man(a1-6)]Man(b1-4)GlcNAc(b1-4)GlcNAc
# Outline: as §1
# [11] = biological target: Man(a1-3)[Man(a1-6)]Man(b1-4)GlcNAc(b1-4)[Fuc(a1-6)]GlcNAc
# Outline: as §1
# Man(a1-6)Man = biological target: Man(a1-6)Man
# Outline: as §1
# Man(b1-4)GlcNAc = biological target: Man(b1-4)GlcNAc
# Outline: as §1
# MurNAc(b1-4)GlcNAc = biological target: MurNAc(b1-4)GlcNAc
# Outline: as §1
# Neu5Ac(a2-3)Gal = biological target: Neu5Ac(a2-3)Gal
# Outline: as §1
# [12] = biological target: Neu5Ac(a2-3)Gal(b1-3)GalNAc
# Outline: as §1
# [13] = biological target: Neu5Ac(a2-3)Gal(b1-3)GalNAc(b1-3)Gal(a1-4)Gal(b1-4)Glc
# Outline: as §1
# [14] = biological target: Neu5Ac(a2-3)Gal(b1-3)GalNAc(b1-4)[Neu5Ac(a2-3)]Gal(b1-4)Glc
# Outline: as §1
# [15] = biological target: Neu5Ac(a2-3)Gal(b1-3)GalNAc(b1-4)[Neu5Ac(a2-8)Neu5Ac(a2-3)]Gal(b1-4)Glc
# Outline: as §1
# [16] = biological target: Neu5Ac(a2-3)Gal(b1-3)GalNAc6S
# Outline: as §1
# [17] = biological target: Neu5Ac(a2-3)Gal(b1-3)GlcNAc
# Outline: as §1
# [18] = biological target: Neu5Ac(a2-3)Gal(b1-3)GlcNAc(b1-2)Man
# Outline: as §1
# [19] = biological target: Neu5Ac(a2-3)Gal(b1-3)GlcNAc(b1-2)Man(a1-3)[GlcNAc(b1-4)][Neu5Ac(a2-3)Gal(b1-3)GlcNAc(b1-2)Man(a1-6)]Man(b1-4)GlcNAc(b1-4)GlcNAc
# Outline: as §1
# [20] = biological target: Neu5Ac(a2-3)Gal(b1-3)GlcNAc(b1-2)Man(a1-3)[Neu5Ac(a2-3)Gal(b1-3)GlcNAc(b1-2)Man(a1-6)]Man(b1-4)GlcNAc(b1-4)GlcNAc
# Outline: as §1
# [21] = biological target: Neu5Ac(a2-3)Gal(b1-3)GlcNAc(b1-3)Gal(b1-3)GlcNAc
# Outline: as §1
# [22] = biological target: Neu5Ac(a2-3)Gal(b1-3)GlcNAc(b1-3)Gal(b1-4)GlcNAc
# Outline: as §1
# [23] = biological target: Neu5Ac(a2-3)Gal(b1-3)GlcNAc(b1-3)GalNAc
# Outline: as §1
# [24] = biological target: Neu5Ac(a2-3)Gal(b1-3)GlcNAc(b1-4)Gal(b1-4)Glc
# Outline: as §1
# [25] = biological target: Neu5Ac(a2-3)Gal(b1-3)GlcNAc(b1-6)GalNAc
# Outline: as §1
# [26] = biological target: Neu5Ac(a2-3)Gal(b1-3)GlcNAc6S
# Outline: as §1
# [27] = biological target: Neu5Ac(a2-3)Gal(b1-3)[Fuc(a1-4)]GlcNAc
# Outline: as §1
# [28] = biological target: Neu5Ac(a2-3)Gal(b1-3)[Fuc(a1-4)]GlcNAc(b1-3)Gal(b1-3)[Fuc(a1-4)]GlcNAc
# Outline: as §1
# [29] = biological target: Neu5Ac(a2-3)Gal(b1-3)[Fuc(a1-4)]GlcNAc(b1-3)Gal(b1-4)[Fuc(a1-3)]GlcNAc
# Outline: as §1
# [30] = biological target: Neu5Ac(a2-3)Gal(b1-3)[GlcNAc(b1-6)]GalNAc
# Outline: as §1
# [31] = biological target: Neu5Ac(a2-3)Gal(b1-3)[Neu5Ac(a2-3)Gal(b1-4)]GlcNAc
# Outline: as §1
# [32] = biological target: Neu5Ac(a2-3)Gal(b1-3)[Neu5Ac(a2-6)]GalNAc
# Outline: as §1
binder,measurement,setting,value
B1,glycan array binding signal (z-score),[1],0.131
same,glycan array binding signal (z-score),[2],-0.563
same,glycan array binding signal (z-score),[3],-0.503
same,glycan array binding signal (z-score),[4],0.672
same,glycan array binding signal (z-score),[5],-0.43
same,glycan array binding signal (z-score),[6],0.431
same,glycan array binding signal (z-score),Man(a1-3)[Man(a1-6)]Man,-0.487
same,glycan array binding signal (z-score),[7],-0.406
same,glycan array binding signal (z-score),[8],0.162
same,glycan array binding signal (z-score),[9],0.058
same,glycan array binding signal (z-score),[10],-0.172
same,glycan array binding signal (z-score),[11],-0.193
same,glycan array binding signal (z-score),Man(a1-6)Man,-0.442
same,glycan array binding signal (z-score),Man(b1-4)GlcNAc,-0.114
same,glycan array binding signal (z-score),MurNAc(b1-4)GlcNAc,0.849
same,glycan array binding signal (z-score),Neu5Ac(a2-3)Gal,-0.039
same,glycan array binding signal (z-score),[12],-0.079
same,glycan array binding signal (z-score),[13],-0.606
same,glycan array binding signal (z-score),[14],0.416
same,glycan array binding signal (z-score),[15],-0.646
same,glycan array binding signal (z-score),[16],-0.649
same,glycan array binding signal (z-score),[17],-0.241
same,glycan array binding signal (z-score),[18],0.245
same,glycan array binding signal (z-score),[19],-0.466
same,glycan array binding signal (z-score),[20],0.608
same,glycan array binding signal (z-score),[21],-0.55
same,glycan array binding signal (z-score),[22],-0.421
same,glycan array binding signal (z-score),[23],-0.063
same,glycan array binding signal (z-score),[24],0.109
same,glycan array binding signal (z-score),[25],0.019
same,glycan array binding signal (z-score),[26],-0.109
same,glycan array binding signal (z-score),[27],-0.301
same,glycan array binding signal (z-score),[28],-0.082
same,glycan array binding signal (z-score),[29],0.115
same,glycan array binding signal (z-score),[30],0.381
same,glycan array binding signal (z-score),[31],-0.578
same,glycan array binding signal (z-score),[32],-0.587

# Rewritten as tab-separated lines: entries from further up
binder	measurement	setting	value
B1	glycan array binding signal (z-score)	[12]	-0.079
same	glycan array binding signal (z-score)	[13]	-0.606
same	glycan array binding signal (z-score)	[14]	0.416
same	glycan array binding signal (z-score)	[15]	-0.646
same	glycan array binding signal (z-score)	[16]	-0.649
same	glycan array binding signal (z-score)	[17]	-0.241
same	glycan array binding signal (z-score)	[18]	0.245
same	glycan array binding signal (z-score)	[19]	-0.466
same	glycan array binding signal (z-score)	[20]	0.608
same	glycan array binding signal (z-score)	[21]	-0.55
same	glycan array binding signal (z-score)	[22]	-0.421
